Common to all, as to type: cell-based
Assay [1] addresses T1, RNA polymerase II (Mus musculus) (UniProt P08775+Q8CFI7+P97760+A0A3Q4L2S8+Q80UW8+P61219+P62488+Q923G2+P60898+O08740+Q63871+P62876). The experiment in a line: Inhibition of RNA polymerase II in mouse B16-F1 migrating cells assessed as fold change in Gpi1-RNA stability at 0.1 mM measured by ChIP-seq analysis relative to control cells.
The target in assay [2] is T1, RNA polymerase II (Mus musculus). The experiment in a line: Inhibition of RNA polymerase II in mouse B16-F1 migrating cells assessed as fold change in Cyba-RNA stability at 0.1 mM measured by ChIP-seq analysis relative to control cells.
For assay [3] the target is unchanged. In words: Inhibition of RNA polymerase II in mouse B16-F1 migrating cells assessed as fold change in Tpr-RNA stability at 0.1 mM measured by ChIP-seq analysis relative to control cells.
The target is the same in assay [4]. In words: Inhibition of RNA polymerase II in mouse B16-F1 migrating cells assessed as fold change in Htatsf1-RNA stability at 0.1 mM measured by ChIP-seq analysis relative to control cells.
For assay [5] the target is unchanged. In words: Inhibition of RNA polymerase II in mouse B16-F1 migrating cells assessed as fold change in Cdca7-RNA stability at 0.1 mM measured by ChIP-seq analysis relative to control cells.
For assay [6] the target is unchanged. The experiment in a line: Inhibition of RNA polymerase II in mouse B16-F1 migrating cells assessed as fold change in Dnm1l-RNA stability at 0.1 mM measured by ChIP-seq analysis relative to control cells.
Assay [7] shares this target. The experiment in a line: Inhibition of RNA polymerase II in mouse B16-F1 migrating cells assessed as fold change in Naa50-RNA stability at 0.1 mM measured by ChIP-seq analysis relative to control cells.
For assay [8] the target is unchanged. The experiment in a line: Inhibition of RNA polymerase II in mouse B16-F1 migrating cells assessed as fold change in Dse-RNA stability at 0.1 mM measured by ChIP-seq analysis relative to control cells.
Assay [9] has the same target. The experiment in a line: Inhibition of RNA polymerase II in mouse B16-F1 migrating cells assessed as fold change in Sra1-RNA stability at 0.1 mM measured by ChIP-seq analysis relative to control cells.
For assay [10] the target is unchanged. In words: Inhibition of RNA polymerase II in mouse B16-F1 migrating cells assessed as fold change in Gtf3a-RNA stability at 0.1 mM measured by ChIP-seq analysis relative to control cells.
Assay [11] has the same target. The experiment in a line: Inhibition of RNA polymerase II in mouse B16-F1 migrating cells assessed as fold change in Fubp3-RNA stability at 0.1 mM measured by ChIP-seq analysis relative to control cells.
The target is the same in assay [12]. In words: Inhibition of RNA polymerase II in mouse B16-F1 migrating cells assessed as fold change in Trp53inp1-RNA stability at 0.1 mM measured by ChIP-seq analysis relative to control cells.
Assay [13] has the same target. The experiment in a line: Inhibition of RNA polymerase II in mouse B16-F1 migrating cells assessed as fold change in Stk3-RNA stability at 0.1 mM measured by ChIP-seq analysis relative to control cells.
Assay [14] has the same target. In words: Inhibition of RNA polymerase II in mouse B16-F1 migrating cells assessed as fold change in Pnpt1-RNA stability at 0.1 mM measured by ChIP-seq analysis relative to control cells.
The target is the same in assay [15]. In words: Inhibition of RNA polymerase II in mouse B16-F1 migrating cells assessed as fold change in Chchd10-RNA stability at 0.1 mM measured by ChIP-seq analysis relative to control cells.
For assay [16] the target is unchanged. In words: Inhibition of RNA polymerase II in mouse B16-F1 migrating cells assessed as fold change in Stag1-RNA stability at 0.1 mM measured by ChIP-seq analysis relative to control cells.
The target is the same in assay [17]. The experiment in a line: Inhibition of RNA polymerase II in mouse B16-F1 migrating cells assessed as fold change in Mgll-RNA stability at 0.1 mM measured by ChIP-seq analysis relative to control cells.
The target is the same in assay [18]. In words: Inhibition of RNA polymerase II in mouse B16-F1 migrating cells assessed as fold change in Rrp7a-RNA stability at 0.1 mM measured by ChIP-seq analysis relative to control cells.
For assay [19] the target is unchanged. In words: Inhibition of RNA polymerase II in mouse B16-F1 migrating cells assessed as fold change in Mrpl51-RNA stability at 0.1 mM measured by ChIP-seq analysis relative to control cells.
The target of assay [20] is Histone-lysine N-methyltransferase EZH2 (Mus musculus) (UniProt Q61188). The experiment in a line: Inhibition of EZH2 in mouse B16-F1 migrating cells assessed as fold change in H3K27me3-buffered regulated Ccne2-mRNA expression at 3 uM measured by ChIP-seq analysis relative to control cells.
The target is the same in assay [21]. The experiment in a line: Inhibition of EZH2 in mouse B16-F1 migrating cells assessed as fold change in H3K27me3-buffered regulated Pkhd1-mRNA expression at 3 uM measured by ChIP-seq analysis relative to control cells.
For assay [22] the target is unchanged. In words: Inhibition of EZH2 in mouse B16-F1 migrating cells assessed as fold change in H3K27me3-buffered regulated Aspm-mRNA expression at 3 uM measured by ChIP-seq analysis relative to control cells.
Assay [23] has the same target. In words: Inhibition of EZH2 in mouse B16-F1 migrating cells assessed as fold change in H3K27me3-independent regulated Gng4-mRNA expression at 3 uM measured by ChIP-seq analysis relative to control cells.
The target is the same in assay [24]. In words: Inhibition of EZH2 in mouse B16-F1 migrating cells assessed as fold change in H3K27me3-dependent regulated Gm16010-mRNA expression at 3 uM measured by ChIP-seq analysis relative to control cells.
Assay [25] shares this target. The experiment in a line: Inhibition of EZH2 in mouse B16-F1 migrating cells assessed as fold change in H3K27me3-buffered regulated Ccdc65-mRNA expression at 3 uM measured by ChIP-seq analysis relative to control cells.
For assay [26] the target is unchanged. In words: Inhibition of EZH2 in mouse B16-F1 migrating cells assessed as fold change in H3K27me3-buffered regulated Dlg3-mRNA expression at 3 uM measured by ChIP-seq analysis relative to control cells.
The target is the same in assay [27]. The experiment in a line: Inhibition of EZH2 in mouse B16-F1 migrating cells assessed as fold change in H3K27me3-buffered regulated Rap2b-mRNA expression at 3 uM measured by ChIP-seq analysis relative to control cells.
For assay [28] the target is unchanged. The experiment in a line: Inhibition of EZH2 in mouse B16-F1 migrating cells assessed as fold change in H3K27me3-buffered regulated Snhg1-mRNA expression at 3 uM measured by ChIP-seq analysis relative to control cells.
Assay [29] has the same target. The experiment in a line: Inhibition of EZH2 in mouse B16-F1 migrating cells assessed as fold change in H3K27me3-buffered regulated Itgb3-mRNA expression at 3 uM measured by ChIP-seq analysis relative to control cells.
Assay [30] shares this target. The experiment in a line: Inhibition of EZH2 in mouse B16-F1 migrating cells assessed as fold change in H3K27me3-buffered regulated Pola2-mRNA expression at 3 uM measured by ChIP-seq analysis relative to control cells.

By UniProt entry, the sequences of proteins in these tests, tags left out.
UniProt Q61188, whole entry: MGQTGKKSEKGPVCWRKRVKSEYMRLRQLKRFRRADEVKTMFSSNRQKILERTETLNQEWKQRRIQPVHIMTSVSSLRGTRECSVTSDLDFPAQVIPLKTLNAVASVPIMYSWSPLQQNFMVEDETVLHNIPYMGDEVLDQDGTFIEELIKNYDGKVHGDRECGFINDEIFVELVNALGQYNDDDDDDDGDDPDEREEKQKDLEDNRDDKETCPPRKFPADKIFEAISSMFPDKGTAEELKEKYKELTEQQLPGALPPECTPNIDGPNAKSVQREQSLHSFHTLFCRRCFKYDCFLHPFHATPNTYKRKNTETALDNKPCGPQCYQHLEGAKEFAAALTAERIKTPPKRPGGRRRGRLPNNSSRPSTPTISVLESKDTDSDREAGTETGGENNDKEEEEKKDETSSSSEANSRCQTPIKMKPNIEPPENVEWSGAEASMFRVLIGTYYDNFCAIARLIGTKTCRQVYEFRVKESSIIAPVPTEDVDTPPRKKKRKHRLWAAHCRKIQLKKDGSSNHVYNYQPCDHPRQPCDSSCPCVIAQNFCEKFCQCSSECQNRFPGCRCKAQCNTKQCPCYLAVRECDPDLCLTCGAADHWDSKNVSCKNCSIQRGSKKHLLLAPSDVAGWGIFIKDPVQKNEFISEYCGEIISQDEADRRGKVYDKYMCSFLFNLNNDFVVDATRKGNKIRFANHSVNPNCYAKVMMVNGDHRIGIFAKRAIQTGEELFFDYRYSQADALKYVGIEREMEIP

Further values from the same series stand in other lists.

In the case of `OC[C@H]1O[C@@H](n2cnc3cc(Cl)c(Cl)cc32)[C@H](O)[C@@H]1O`, the log2FC in assay [1] is 0.67; in assay [2], 0.6; in assay [3], -0.76; in [4], -0.64; in assay [5], -0.86; in [6], -0.5. Besides, the log2FC is -0.49 in assay [7]; -0.73 in assay [8]; 0.45 in assay [9]; 0.45 in assay [10]; -0.8 in assay [11]; -0.87 in [12]. Further, the log2FC in [13] is -0.48; in [14], -0.73; in assay [15] it was 0.62; in [16], -0.58; in assay [17], 0.38; in assay [18], 0.39. Besides, in assay [19], the log2FC was 0.42.

Regarding `CCCc1cc(C)[nH]c(=O)c1CNC(=O)c1cc(-c2ccnc(N3CCN(C)CC3)c2)cc2c1cnn2C(C)C`, the log2FC in assay [20] was -0.44; in [21] it was -1.27; in [22], -0.42; in assay [23], 1.33; in [24] it was 0.29; in assay [25], 0.82. Also, the log2FC in [26] was -0.59; in assay [27] it was -0.38; in [28], -0.96; in [29] it was 0.43; in assay [30], -0.4.

The record behind these values is ChEMBL document CHEMBL5674883, “The Heterochromatin Landscape in Migrating Cells and the Importance of H3K27me3 for Associated Transcriptome Alterations” (Cells, 2018).
